This is an account of results in publication PMC6042963.

The chains behind the UniProt entries cited, without tags or fusion partners. Where a name states a change or a piece, a line headed by the entry shows the natural chain unless it says otherwise.
UniProt Q80WQ6: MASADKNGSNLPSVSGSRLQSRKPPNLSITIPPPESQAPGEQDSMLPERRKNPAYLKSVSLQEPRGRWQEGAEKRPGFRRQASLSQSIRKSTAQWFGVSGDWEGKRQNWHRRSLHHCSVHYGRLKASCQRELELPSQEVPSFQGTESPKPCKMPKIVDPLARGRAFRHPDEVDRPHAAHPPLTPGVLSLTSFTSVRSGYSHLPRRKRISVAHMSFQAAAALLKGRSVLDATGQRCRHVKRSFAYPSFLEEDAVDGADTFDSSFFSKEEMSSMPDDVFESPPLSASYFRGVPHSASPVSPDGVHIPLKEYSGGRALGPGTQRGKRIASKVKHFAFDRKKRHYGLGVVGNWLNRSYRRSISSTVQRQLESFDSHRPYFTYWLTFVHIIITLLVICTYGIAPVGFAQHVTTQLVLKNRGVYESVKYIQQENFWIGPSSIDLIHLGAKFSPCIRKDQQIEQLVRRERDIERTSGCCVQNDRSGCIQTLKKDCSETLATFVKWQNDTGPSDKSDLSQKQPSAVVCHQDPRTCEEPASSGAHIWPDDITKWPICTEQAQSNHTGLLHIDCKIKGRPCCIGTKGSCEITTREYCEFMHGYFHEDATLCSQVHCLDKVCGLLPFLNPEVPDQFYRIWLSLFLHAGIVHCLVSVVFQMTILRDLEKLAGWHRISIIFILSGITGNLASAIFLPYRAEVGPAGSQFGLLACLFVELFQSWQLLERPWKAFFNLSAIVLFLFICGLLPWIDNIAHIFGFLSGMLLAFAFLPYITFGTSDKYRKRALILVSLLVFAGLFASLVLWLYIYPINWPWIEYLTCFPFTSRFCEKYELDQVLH

Results are given in words; binding and its absence hold for the method and conditions named. Binding seen in cells or lysates may run through a third protein. For some assays here: Binding calls can cover weak binding; strength is not graded here. Sequences can lack the tags named with a protein.

Experiment [1] addresses HA-tagged iRhom2 lacking the iRhom homology domain (IRHD) (mouse) (UniProt Q80WQ6). Description: co-IP; HEK 293ET transfected with iTAP-FLAG and HA-tagged proteins; 1% Triton X-100, 150 mM NaCl, 50 mM Tris-HCl pH 7.4 lysis; anti-HA magnetic beads; washes with 300 mM NaCl at 4°C; FLAG western blot.
The target of experiment [2] is HA-tagged iRhom2 mutant lacking all of the cytoplasmic tail (∆Nterm) (mouse). The description is as above.

B1: human iTAP-FLAG (protein, UniProt Q9BZ67 1-464)
chain: MDGTEGSAGQPGPAERSHRSSVSSVGARAADVLVYLADDTVVPLAVENLPSLSAHELHRAVREVLQLPDIALDVFALWLVSPLLEVQLKPKHQPYKLGRQWPELLLRFTSAPDDDVAMDEPFLQFRRNVFFPKRRELQIHDEEVLRLLYEEAKGNVLAARYPCDVEDCEALGALVCRVQLGPYQPGRPAACDLREKLDSFLPAHLCKRGQSLFAALRGRGARAGPGEQGLLNAYRQVQEVSSDGGCEAALGTHYRAYLLKCHELPFYGCAFFHGEVDKPAQGFLHRGGRKPVSVAISLEGVHVIDSREKHVLLGLRFQELSWDHTSPEEEEPILWLEFDGDSEGTPVNKLLKIYSKQAELMSSLIEYCIELSQAAEPAGPQDSATGSPSDPSSSLAPVQRPKLRRQGSVVSSRIQHLSTIDYVEDGKGIRRVKPKRTTSFFSRQLSLGQGSYTVVQPGDSLEQG
Turning to B1, the binding entry in experiment [1] was “binds”; in experiment [2], “no binding”.
